Experimental findings from the supplement of paper PMC12819154, “High-throughput peptide-centric local stability assay extends protein–ligand identification to membrane proteins, tissues and bacteria” (Nature Structural & Molecular Biology, 2025) are described below.

By UniProt entry, the sequences of proteins in these tests, tags left out. Where a name states a change or a piece, a line headed by the entry shows the natural chain unless it says otherwise.
UniProt Q86TP1: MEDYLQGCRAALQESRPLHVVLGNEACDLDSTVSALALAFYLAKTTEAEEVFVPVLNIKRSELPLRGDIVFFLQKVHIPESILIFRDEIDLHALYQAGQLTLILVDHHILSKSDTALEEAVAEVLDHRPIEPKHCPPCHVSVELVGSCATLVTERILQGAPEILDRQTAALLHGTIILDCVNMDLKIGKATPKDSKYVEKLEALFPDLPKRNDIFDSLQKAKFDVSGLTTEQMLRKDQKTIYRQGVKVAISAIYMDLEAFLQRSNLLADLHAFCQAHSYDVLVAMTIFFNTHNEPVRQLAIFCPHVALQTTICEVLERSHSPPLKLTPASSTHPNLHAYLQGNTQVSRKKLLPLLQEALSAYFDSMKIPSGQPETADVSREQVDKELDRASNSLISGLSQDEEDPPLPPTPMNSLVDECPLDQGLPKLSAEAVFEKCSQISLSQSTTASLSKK
UniProt Q70CQ2: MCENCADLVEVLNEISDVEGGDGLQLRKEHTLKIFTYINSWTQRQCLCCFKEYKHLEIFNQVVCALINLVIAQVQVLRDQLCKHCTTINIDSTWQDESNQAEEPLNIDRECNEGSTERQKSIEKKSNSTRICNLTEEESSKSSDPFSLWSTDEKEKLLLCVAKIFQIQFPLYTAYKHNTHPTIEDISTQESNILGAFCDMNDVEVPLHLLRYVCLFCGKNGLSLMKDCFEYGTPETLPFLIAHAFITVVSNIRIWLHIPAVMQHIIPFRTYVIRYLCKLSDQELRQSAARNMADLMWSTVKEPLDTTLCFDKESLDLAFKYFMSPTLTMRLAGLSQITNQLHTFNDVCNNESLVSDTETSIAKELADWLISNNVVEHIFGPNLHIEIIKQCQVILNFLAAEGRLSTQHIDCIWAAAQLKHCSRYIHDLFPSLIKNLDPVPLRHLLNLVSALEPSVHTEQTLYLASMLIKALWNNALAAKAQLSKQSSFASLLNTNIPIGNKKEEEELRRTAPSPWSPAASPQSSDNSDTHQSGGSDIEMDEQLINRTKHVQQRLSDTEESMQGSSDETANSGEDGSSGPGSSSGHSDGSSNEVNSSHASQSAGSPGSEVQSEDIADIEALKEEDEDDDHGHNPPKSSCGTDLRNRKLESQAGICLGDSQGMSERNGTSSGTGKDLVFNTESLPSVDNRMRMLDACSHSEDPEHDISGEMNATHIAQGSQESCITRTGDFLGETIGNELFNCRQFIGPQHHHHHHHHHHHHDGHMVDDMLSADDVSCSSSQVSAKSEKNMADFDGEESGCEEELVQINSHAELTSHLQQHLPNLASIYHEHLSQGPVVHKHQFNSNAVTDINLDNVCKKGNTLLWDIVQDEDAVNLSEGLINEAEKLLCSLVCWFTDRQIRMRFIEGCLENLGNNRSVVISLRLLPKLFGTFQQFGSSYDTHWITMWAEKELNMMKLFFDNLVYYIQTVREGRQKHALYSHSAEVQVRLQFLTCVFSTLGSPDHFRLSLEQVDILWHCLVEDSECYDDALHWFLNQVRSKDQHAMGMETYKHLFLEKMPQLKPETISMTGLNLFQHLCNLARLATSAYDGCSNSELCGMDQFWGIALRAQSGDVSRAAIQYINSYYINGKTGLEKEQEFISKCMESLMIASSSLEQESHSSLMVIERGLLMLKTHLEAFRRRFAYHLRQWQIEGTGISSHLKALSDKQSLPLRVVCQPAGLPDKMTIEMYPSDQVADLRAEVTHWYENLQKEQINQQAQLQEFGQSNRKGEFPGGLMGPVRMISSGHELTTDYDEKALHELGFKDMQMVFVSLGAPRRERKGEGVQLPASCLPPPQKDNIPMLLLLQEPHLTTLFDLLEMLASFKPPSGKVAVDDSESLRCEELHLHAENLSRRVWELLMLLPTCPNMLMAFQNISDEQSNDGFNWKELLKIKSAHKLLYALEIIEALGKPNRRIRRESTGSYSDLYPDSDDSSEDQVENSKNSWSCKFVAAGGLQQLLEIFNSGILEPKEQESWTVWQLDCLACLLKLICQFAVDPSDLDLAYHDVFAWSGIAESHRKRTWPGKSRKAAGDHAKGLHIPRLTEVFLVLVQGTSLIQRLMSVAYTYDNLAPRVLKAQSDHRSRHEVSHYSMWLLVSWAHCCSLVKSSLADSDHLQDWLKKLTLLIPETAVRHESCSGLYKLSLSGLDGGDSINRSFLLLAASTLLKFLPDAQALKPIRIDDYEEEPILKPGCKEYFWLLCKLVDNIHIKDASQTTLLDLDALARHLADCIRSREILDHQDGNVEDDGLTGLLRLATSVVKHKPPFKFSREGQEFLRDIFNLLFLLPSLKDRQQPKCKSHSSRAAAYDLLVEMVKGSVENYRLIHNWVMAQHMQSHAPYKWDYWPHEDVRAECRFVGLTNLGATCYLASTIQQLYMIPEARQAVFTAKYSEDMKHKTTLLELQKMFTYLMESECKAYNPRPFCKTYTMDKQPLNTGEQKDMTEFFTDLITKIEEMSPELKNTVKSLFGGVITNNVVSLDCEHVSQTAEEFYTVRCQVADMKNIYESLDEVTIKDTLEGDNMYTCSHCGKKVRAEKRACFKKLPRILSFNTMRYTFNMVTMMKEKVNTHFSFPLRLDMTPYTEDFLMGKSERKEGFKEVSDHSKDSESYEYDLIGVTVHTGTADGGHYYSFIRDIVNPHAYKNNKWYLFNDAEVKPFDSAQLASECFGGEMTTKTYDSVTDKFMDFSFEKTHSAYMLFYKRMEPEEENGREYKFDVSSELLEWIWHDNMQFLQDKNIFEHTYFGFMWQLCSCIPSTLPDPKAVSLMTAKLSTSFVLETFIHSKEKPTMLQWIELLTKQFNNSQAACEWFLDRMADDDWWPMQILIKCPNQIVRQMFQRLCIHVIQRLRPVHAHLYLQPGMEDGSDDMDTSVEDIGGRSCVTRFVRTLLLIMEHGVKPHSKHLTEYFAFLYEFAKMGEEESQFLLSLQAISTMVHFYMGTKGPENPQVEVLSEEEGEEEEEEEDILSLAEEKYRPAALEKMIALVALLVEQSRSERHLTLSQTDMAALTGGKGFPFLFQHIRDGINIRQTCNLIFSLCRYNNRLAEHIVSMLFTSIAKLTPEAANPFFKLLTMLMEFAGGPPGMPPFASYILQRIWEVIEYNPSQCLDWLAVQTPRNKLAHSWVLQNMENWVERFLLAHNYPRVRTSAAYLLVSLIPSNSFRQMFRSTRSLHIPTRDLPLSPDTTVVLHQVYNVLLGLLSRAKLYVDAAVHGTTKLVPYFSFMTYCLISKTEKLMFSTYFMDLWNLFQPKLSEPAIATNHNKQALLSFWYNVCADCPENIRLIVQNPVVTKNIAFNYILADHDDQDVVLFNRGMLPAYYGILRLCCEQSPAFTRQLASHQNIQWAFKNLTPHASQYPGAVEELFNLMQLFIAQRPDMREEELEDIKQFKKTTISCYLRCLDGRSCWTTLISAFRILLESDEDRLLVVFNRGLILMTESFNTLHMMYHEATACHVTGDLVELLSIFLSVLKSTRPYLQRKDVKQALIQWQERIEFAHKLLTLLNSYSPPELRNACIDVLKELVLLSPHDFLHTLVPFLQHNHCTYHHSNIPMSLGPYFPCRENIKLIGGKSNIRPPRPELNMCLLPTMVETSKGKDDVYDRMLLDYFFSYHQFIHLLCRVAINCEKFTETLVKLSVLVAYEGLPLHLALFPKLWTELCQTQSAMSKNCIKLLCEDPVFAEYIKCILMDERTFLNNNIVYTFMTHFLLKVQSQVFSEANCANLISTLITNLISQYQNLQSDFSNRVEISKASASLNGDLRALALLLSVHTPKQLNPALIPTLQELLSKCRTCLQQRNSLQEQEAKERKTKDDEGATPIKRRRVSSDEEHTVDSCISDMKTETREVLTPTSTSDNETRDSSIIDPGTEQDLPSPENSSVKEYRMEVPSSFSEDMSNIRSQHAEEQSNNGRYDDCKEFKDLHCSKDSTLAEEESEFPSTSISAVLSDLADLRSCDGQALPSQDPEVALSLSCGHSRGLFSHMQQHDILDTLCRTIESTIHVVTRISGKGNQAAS
UniProt Q86UK7: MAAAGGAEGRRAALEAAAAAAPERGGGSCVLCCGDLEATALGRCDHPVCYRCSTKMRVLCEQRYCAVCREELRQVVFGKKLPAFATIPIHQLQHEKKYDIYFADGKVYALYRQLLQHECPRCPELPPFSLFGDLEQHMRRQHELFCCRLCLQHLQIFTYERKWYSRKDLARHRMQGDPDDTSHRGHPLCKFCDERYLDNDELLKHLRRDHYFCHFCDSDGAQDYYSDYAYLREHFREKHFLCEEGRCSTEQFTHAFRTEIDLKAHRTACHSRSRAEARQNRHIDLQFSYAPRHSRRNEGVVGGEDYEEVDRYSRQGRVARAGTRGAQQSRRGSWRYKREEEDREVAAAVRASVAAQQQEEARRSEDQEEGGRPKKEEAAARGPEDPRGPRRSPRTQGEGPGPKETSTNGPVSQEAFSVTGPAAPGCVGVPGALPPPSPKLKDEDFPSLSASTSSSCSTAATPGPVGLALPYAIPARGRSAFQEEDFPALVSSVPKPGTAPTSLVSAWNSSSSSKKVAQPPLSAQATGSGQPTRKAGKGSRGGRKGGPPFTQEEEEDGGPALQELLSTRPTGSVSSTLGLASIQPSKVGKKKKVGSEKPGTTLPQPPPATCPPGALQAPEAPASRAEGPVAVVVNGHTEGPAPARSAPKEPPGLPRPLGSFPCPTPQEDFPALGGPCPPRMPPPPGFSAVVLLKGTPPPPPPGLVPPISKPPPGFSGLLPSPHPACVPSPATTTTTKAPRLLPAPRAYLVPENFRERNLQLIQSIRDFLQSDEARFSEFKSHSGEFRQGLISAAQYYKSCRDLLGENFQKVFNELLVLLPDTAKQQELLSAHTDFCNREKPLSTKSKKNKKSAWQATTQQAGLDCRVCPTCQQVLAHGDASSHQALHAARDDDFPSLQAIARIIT
UniProt Q7Z7K6: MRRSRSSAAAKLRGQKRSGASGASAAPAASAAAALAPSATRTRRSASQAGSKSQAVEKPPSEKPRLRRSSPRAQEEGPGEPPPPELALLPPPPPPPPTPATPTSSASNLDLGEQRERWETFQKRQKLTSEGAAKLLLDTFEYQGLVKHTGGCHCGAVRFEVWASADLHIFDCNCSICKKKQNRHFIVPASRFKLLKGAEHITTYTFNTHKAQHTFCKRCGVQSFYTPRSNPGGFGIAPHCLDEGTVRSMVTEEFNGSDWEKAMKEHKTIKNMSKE
UniProt Q7L0Y3: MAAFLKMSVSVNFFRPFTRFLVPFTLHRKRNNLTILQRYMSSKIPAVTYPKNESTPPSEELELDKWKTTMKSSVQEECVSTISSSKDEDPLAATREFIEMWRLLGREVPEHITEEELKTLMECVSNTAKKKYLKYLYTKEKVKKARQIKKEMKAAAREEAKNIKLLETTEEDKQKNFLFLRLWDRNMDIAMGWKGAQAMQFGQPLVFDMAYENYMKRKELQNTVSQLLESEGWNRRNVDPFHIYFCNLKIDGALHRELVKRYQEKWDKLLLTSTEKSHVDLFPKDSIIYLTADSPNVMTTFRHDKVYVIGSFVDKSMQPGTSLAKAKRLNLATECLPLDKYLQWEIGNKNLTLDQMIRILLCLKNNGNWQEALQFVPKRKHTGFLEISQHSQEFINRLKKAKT
UniProt Q7Z5Y7: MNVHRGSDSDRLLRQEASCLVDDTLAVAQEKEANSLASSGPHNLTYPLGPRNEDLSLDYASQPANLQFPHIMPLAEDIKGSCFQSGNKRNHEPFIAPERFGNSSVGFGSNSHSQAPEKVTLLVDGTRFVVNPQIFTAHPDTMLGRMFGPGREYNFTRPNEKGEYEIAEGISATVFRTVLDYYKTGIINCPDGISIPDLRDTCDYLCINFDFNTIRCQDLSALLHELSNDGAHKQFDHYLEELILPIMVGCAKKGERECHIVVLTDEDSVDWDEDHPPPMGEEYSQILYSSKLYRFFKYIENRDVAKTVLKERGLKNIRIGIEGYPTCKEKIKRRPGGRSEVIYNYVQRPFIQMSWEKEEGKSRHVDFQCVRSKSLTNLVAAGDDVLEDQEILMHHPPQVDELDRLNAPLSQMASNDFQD
UniProt Q86SX6: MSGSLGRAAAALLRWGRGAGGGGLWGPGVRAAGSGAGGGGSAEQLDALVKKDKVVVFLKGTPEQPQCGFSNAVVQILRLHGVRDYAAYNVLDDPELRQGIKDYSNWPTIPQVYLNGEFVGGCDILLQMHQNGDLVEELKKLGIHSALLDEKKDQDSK
UniProt Q86UD0: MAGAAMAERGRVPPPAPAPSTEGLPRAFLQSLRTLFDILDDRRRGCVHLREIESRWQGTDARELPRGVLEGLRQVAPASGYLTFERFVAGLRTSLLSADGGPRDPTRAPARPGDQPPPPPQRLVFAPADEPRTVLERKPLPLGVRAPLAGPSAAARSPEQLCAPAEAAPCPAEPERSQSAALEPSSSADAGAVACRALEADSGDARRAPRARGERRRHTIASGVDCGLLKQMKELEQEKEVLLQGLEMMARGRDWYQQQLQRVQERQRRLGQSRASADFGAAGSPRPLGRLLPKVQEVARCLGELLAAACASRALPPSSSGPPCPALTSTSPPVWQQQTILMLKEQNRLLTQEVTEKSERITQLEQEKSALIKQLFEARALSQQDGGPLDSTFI

The list shows a part of the results. Most values lie at the level of the controls, where differences are scatter.

Compound in the assay: Cc1nc(Nc2ncc(C(=O)Nc3c(C)cccc3Cl)s2)cc(N2CCN(CCO)CC2)n1 [dasatinib]
Nature of the assay: log2 fold change of tryptic peptide abundance, ligand vs vehicle (limited proteolysis) (log2 ratio); higher = more trypsin-susceptible (destabilized). The note with it: ligand concentration: 5 uM; sample: K562 cleared lysate.
Consider “UniProt Q7Z4H7 (peptide sequence: HVLTSHIDEPPTQNQSDLLNK, peptide start residue: 669)”, for which the log2 fold change came to 0.293.

In the case of “TBC1D9 (peptide sequence: VLTAYAFR, peptide start residue: 579) (UniProt Q6ZT07)”, the log2 fold change is -0.128. The value for “UniProt Q86TP1 (peptide sequence: RSELPLRGDIVFFLQK, peptide start residue: 60)” was 0.709.

Consider “CRELD2 (peptide sequence: NFGGGNTAWEEK, peptide start residue: 52) (UniProt Q6UXH1)”, for which the log2 fold change was 0.021. The figure for “AEBP2 (peptide sequence: SLPRPHDFFDAQTLDAIR, peptide start residue: 390) (UniProt Q6ZN18)” is 0.281.

Take “YTHDF3 (peptide sequence: DFDWNLK, peptide start residue: 402) (UniProt Q7Z739)”: the log2 fold change is -0.169. The value for “COPS6 (peptide sequence: SQEGRPVQVIGALIGK, peptide start residue: 60) (UniProt Q7L5N1)” was -0.323; that for “UniProt Q7Z7F0 (peptide sequence: KLCENLLQTVHAEYSR, peptide start residue: 310)” was 0.865. The value for “CYB5R4 (peptide sequence: KVLNGMLPK, peptide start residue: 145) (UniProt Q7L1T6)” was 0.271; that for “UniProt Q7Z736 (peptide sequence: EGGGGAGTAAAVLGGWKR, peptide start residue: 619)” was -0.265; that for “UniProt Q6ZN32 (peptide sequence: CKPQMNYDKLSR, peptide start residue: 72)” was -0.128. The figure for “UniProt Q6ZR52 (peptide sequence: SSHLTTHKR, peptide start residue: 301)” is -0.0507. For “MIGA2 (peptide sequence: EFAEKLESLLHR, peptide start residue: 232) (UniProt Q7L4E1)”, the log2 fold change worked out at 0.0637. The value for “THADA (peptide sequence: VISHHMQTCVENR, peptide start residue: 1660) (UniProt Q6YHU6)” was -0.341. Turning to “UniProt Q86T90 (peptide sequence: VTDASISMESLK, peptide start residue: 59)”, the log2 fold change stood at 0.467.

“TAOK1 (peptide sequence: EIEAFDSESMR, peptide start residue: 874) (UniProt Q7L7X3)”: the log2 fold change turned out to be 0.156. Regarding “USP34 (peptide sequence: MISSGHELTTDYDEK, peptide start residue: 1281) (UniProt Q70CQ2)”, the log2 fold change was 0.153. In the case of “UniProt Q76N89 (peptide sequence: AGREEEEK, peptide start residue: 497)”, the log2 fold change was -0.124. On to “TOM1L2 (peptide sequence: GNSLAEQR, peptide start residue: 392) (UniProt Q6ZVM7)”, for which the log2 fold change is -0.103. The value for “QSOX2 (peptide sequence: VKHHHPAV, peptide start residue: 691) (UniProt Q6ZRP7)” was -0.0945; that for “ATG4D (peptide sequence: FLTAWNNVK, peptide start residue: 69) (UniProt Q86TL0)” was -0.287; that for “ZNF598 (peptide sequence: REEEDREVAAAVR, peptide start residue: 338) (UniProt Q86UK7)” was -0.997.

In the case of “CENPV (peptide sequence: GAEHITTYTFNTHK, peptide start residue: 197) (UniProt Q7Z7K6)”, the log2 fold change amounted to 0.233. The value for “MYH14 (peptide sequence: QLEEAEEEASR, peptide start residue: 1902) (UniProt Q7Z406)” was 0.797; that for “CXXC5 (peptide sequence: SGIISEPLNK, peptide start residue: 62) (UniProt Q7LFL8)” was 0.0869.

With “UniProt Q7Z2Z2 (peptide sequence: YSPLEFLR, peptide start residue: 529)”, the log2 fold change is -0.186. The figure for “STRADA (peptide sequence: SFLVSKPER, peptide start residue: 2) (UniProt Q7RTN6)” is -0.242; for “UniProt Q7Z7L9 (peptide sequence: GGPQEEVTR, peptide start residue: 63)” it is 0.115; for “UniProt Q7L0Y3 (peptide sequence: HDKVYVIGSFVDKSMQPGTSLAK, peptide start residue: 303)” it is 0.186. “KCTD20 (peptide sequence: EYNFTRPNEK, peptide start residue: 152) (UniProt Q7Z5Y7)”: the log2 fold change is -0.752. The figure for “UniProt Q712K3 (peptide sequence: SLQEEPVEGFR, peptide start residue: 19)” is -0.23; for “UniProt Q6ZVC0 (peptide sequence: AGGVLNK, peptide start residue: 569)” it is 0.173; for “MOB3B (peptide sequence: TCPVMSGGPK, peptide start residue: 86) (UniProt Q86TA1)” it is 0.093.

As for “UniProt Q7Z5K2 (peptide sequence: ALQHCEELIQQYNR, peptide start residue: 887)”, the log2 fold change was -0.308.

On to “GLRX5 (peptide sequence: DKVVVFLK, peptide start residue: 52) (UniProt Q86SX6)”, for which the log2 fold change was 0.0449. The value for “UniProt Q70EK9 (peptide sequence: SVYTVGLR, peptide start residue: 356)” was 0.209; that for “RPAIN (peptide sequence: LVGSPPWKEAFR, peptide start residue: 15) (UniProt Q86UA6)” was 0.172; that for “UniProt Q86UD0 (peptide sequence: ASADFGAAGSPRPLGR, peptide start residue: 275)” was -0.231.
